Patent publication US12247238B2, “Mogroside biocatalysis methods and products” (The Coca-Cola Company, priority 2019, dated 2025)
Where a chain is given by its changes, count along the chain named. In names and notes the source's numbering stands. At least one read-out could not be matched to a standard name with certainty.

B1: D258E: A. oryzae β-galactosidase variant, D258E (protein, UniProt Q2UCU3 19-1005, looked up, variant D258E)
Beta-galactosidase A: ASIKHRLNGFTILEHPDPAKRDLLQDIVTWDDKSLFINGERIMLFSGEVHPFRLPVPSLWLDIFHKIRALGFNCVSFYIDWALLEGKPGDYRAEGIFALEPFFDAAKEAGIYLIARPGSYINAEVSGGGFPGWLQRVNGTLRSSDEPFLKATDNYIANAAAAVAKAQITNGGPVILYQPENEYSGGCCGVKYPDADYMQYVMDQARKADIVVPFISNDASPSGHNAPGSGTGAVDIYGHESYPLGFDCANPSVWPEGKLPDNFRTLHLEQSPSTPYSLLEFQAGAFDPWGGPGFEKCYALVNHEFSRVFYRNDLSFGVSTFNLYMTFGGTNWGNLGHPGGYTSYDYGSPITETRNVTREKYSDIKLLANFVKASPSYLTATPRNLTTGVYTDTSDLAVTPLIGDSPGSFFVVRHTDYSSQESTSYKLKLPTSAGNLTIPQLEGTLSLNGRDSKIHVVDYNVSGTNIIYSTAEVFTWKKFDGNKVLVLYGGPKEHHELAIASKSNVTIIEGSDSGIVSTRKGSSVIIGWDVSSTRRIVQVGDLRVFLLDRNSAYNYWVPELPTEGTSPGFSTSKTTASSIIVKAGYLLRGAHLDGADLHLTADFNATTPIEVIGAPTGAKNLFVNGEKASHTVDKNGIWSSEVKYAAPEIKLPGLKDLDWKYLDTLPEIKSSYDDSAWVSADLPKTKNTHRPLDTPTSLYSSDYGFHTGYLIYRGHFVANGKESEFFIRTQGGSAFGSSVWLNETYLGSWTGADYAMDGNSTYKLSQLESGKNYVITVVIDNLGLDENWTVGEETMKNPRGILSYKLSGQDASAITWKLTGNLGGEDYQDKVRGPLNEGGLYAERQGFHQPQPPSESWESGSPLEGLSKPGIGFYTAQFDLDLPKGWDVPLYFNFGNNTQAARAQLYVNGYQYGKFTGNVGPQTSFPVPEGILNYRGTNYVALSLWALESDGAKLGSFELSYTTPVLTGYGNVESPEQPKYEQRKGAY
B2: E142A: A. oryzae β-galactosidase variant, E142A (protein, UniProt Q2UCU3 19-1005, looked up, variant E142A)
Beta-galactosidase A: B1 Beta-galactosidase A with E124A, E240D

Assays:
[1] = Example 8 standard mogroside biocatalytic assay, Mog V as substrate; assay type: biochemical; details: 37° C., pH 5.6
Description: (§1) Standard mogroside biocatalytic assays were performed at 37° C. in 500 μL volume 50 mM sodium citrate buffer pH 5.6, 10 mM magnesium chloride, 10 mM substrate (typically mogroside V or Siamenoside I) and 50 μg mL−1 enzyme, and incubated for 24-96 hours. Mogroside glucosidation activity was detected by direct HPLC detection and quantification of mogroside V substrate and mogroside products from filtered reaction supernatant, and quantified by comparison with standard curves based on peak area (see Analytical Methods).
(§2) Analytical Method: Mogroside compounds HPLC separation and quantification was conducted using a Synergi Hydro-RP column (250 mm×4.6 mm or 150 mm×4.6 mm) with an initial flow rate of 1 mL min−1 and a water: acetonitrile gradient as per below, similar to that described by Zhou et al. (WO 2014/150127). Compounds were detected at 210 nm using diode array detector (Agilent Technologies, USA), and calibration curves established using standard curves from 0.1 to 10 mM. 150 mm column retention times in minutes: mog V 9.5, sia 1 10.6, mog IVa 10.5, mog IV 11.3, mog III 12.6, mogl I 13.2. 250 mm column retention times: mog V 12.3, sia 1 13.2, mog IVa 13.5, mog IV 14.1, mog III 15.3, mog II 16.2.

[2] = Example 8 standard mogroside biocatalytic assay, Sia I as substrate; assay type: biochemical; details: 37° C., pH 5.6
Description: as §1, §2

Molecule	kcat/Km [1]	kcat/Km [2]
B1	386000 M⁻¹ s⁻¹	11100 M⁻¹ s⁻¹
B2	371000 M⁻¹ s⁻¹	880 M⁻¹ s⁻¹
